PubChem BioAssay AID1259254, NCATS – 2017

Test: 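Gene knock-downs that lead to re-replication, shown by excess G2 DNA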 (primary screen)
System: human HCT116 colorectal cancer cells
Knock-down reagent: single siRNA against human genes
Timing: 3 days
Read-out: 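Nuclei stained with Hoechst and imaged; cell-cycle phase assigned by DNA content; G2 share scaled per plate, non-targeting siRNA 0%, GMNN siRNA 100%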
Reading the numbers: G2 robust z-score and G2 cells, % of GMNN control: higher = more G2 cells, more excess DNA replication; raw share of cells in G2: higher = larger share of cells with G2 DNA content
Hit rule: 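Active siRNAs have a G2 robust z of 5 or more median absolute deviations over the median, which in these data means about 38% or higher of GMNN control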
This is a random part of about 59,000 deposited reagents. Over the whole deposit, about 1,550 (2.6%) are marked active. 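G2 share is only a proxy for re-replication; each gene was hit by three separate siRNAs, and active genes were retested.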 Raw values vary from plate to plate and are shown uncorrected. The numbers tell different reagents against one gene apart. Not stated in the record: the amount of reagent.

| gene | reagent no. | G2 robust z-score | G2 cells, % of GMNN control | raw share of cells in G2 (%) | outcome |
| --- | --- | --- | --- | --- | --- |
| CNKSR1 (connector enhancer of kinase suppressor of Ras 1) | 1 | 1.45 | 13.1 | 9.68 | inactive |
| CNKSR1 (connector enhancer of kinase suppressor of Ras 1) | 2 | 0.664 | 7.64 | 7.97 | inactive |
| CNKSR1 (connector enhancer of kinase suppressor of Ras 1) | 3 | -1.11 | -4.82 | 2.14 | inactive |
| VSX2 (visual system homeobox 2) | 1 | 0.833 | 8.83 | 7.51 | inactive |
| VSX2 (visual system homeobox 2) | 2 | 0.196 | 4.34 | 7.78 | inactive |
| VSX2 (visual system homeobox 2) | 3 | 3.76 | 29.4 | 16.5 | inactive |
| BRCA1 (BRCA1 DNA repair associated) | 1 | -0.608 | -1.31 | 2.94 | inactive |
| BRCA1 (BRCA1 DNA repair associated) | 2 | 0.731 | 8.11 | 8.64 | inactive |
| BRCA1 (BRCA1 DNA repair associated) | 3 | 3.55 | 27.9 | 13.2 | inactive |
| RASAL2 (RAS protein activator like 2) | 1 | 1.75 | 15.3 | 11 | inactive |
| RASAL2 (RAS protein activator like 2) | 2 | 1.39 | 12.8 | 9.93 | inactive |
| RASAL2 (RAS protein activator like 2) | 3 | 2.3 | 19.2 | 9.74 | inactive |
| MINPP1 (multiple inositol-polyphosphate phosphatase 1) | 1 | 2.01 | 17.1 | 10.4 | inactive |
| MINPP1 (multiple inositol-polyphosphate phosphatase 1) | 2 | -0.274 | 1.04 | 4.62 | inactive |
| MINPP1 (multiple inositol-polyphosphate phosphatase 1) | 3 | -0.834 | -2.9 | 2.62 | inactive |
| BCL2A1 (BCL2 related protein A1) | 1 | -0.512 | -0.637 | 4.5 | inactive |
| BCL2A1 (BCL2 related protein A1) | 2 | -0.146 | 1.94 | 4.71 | inactive |
| BCL2A1 (BCL2 related protein A1) | 3 | 2.01 | 17.1 | 11.2 | inactive |
| LOC644277 | 1 | 1.95 | 16.7 | 9.99 | inactive |
| LOC644277 | 2 | -0.802 | -2.67 | 2.31 | inactive |
| LOC644277 | 3 | -0.411 | 0.0757 | 3.17 | inactive |
| ANKRD20A18P (ankyrin repeat domain 20 family member A18, pseudogene) | 1 | 1.29 | 12.1 | 8.19 | inactive |
| ANKRD20A18P (ankyrin repeat domain 20 family member A18, pseudogene) | 2 | 0.175 | 4.2 | 5.18 | inactive |
| ANKRD20A18P (ankyrin repeat domain 20 family member A18, pseudogene) | 3 | 0.21 | 4.44 | 6.63 | inactive |
| GORASP2 (golgi reassembly stacking protein 2) | 1 | 0.00694 | 3.02 | 5.55 | inactive |
| GORASP2 (golgi reassembly stacking protein 2) | 2 | -0.0982 | 2.28 | 4.93 | inactive |
| GORASP2 (golgi reassembly stacking protein 2) | 3 | -0.706 | -2 | 2.6 | inactive |
| TRIM59 (tripartite motif containing 59) | 1 | 1.86 | 16.1 | 12.8 | inactive |
| TRIM59 (tripartite motif containing 59) | 2 | 1.26 | 11.9 | 9.59 | inactive |
| TRIM59 (tripartite motif containing 59) | 3 | -0.46 | -0.268 | 4.19 | inactive |
| MID1IP1 (MID1 interacting protein 1) | 1 | 0.26 | 4.8 | 6.24 | inactive |
| MID1IP1 (MID1 interacting protein 1) | 2 | 3.68 | 28.9 | 18.3 | inactive |
| MID1IP1 (MID1 interacting protein 1) | 3 | -1.06 | -4.51 | 1.6 | inactive |
| ACP7 (acid phosphatase 7, tartrate resistant (putative)) | 1 | 2.83 | 22.9 | 12.2 | inactive |
| ACP7 (acid phosphatase 7, tartrate resistant (putative)) | 2 | 3.37 | 26.7 | 12.3 | inactive |
| ACP7 (acid phosphatase 7, tartrate resistant (putative)) | 3 | 1.26 | 11.8 | 7.06 | inactive |
| MAX (MYC associated transcriptional regulator X) | 1 | -1.5 | -7.57 | 0.699 | inactive |
| MAX (MYC associated transcriptional regulator X) | 2 | -1.24 | -5.77 | 3.13 | inactive |
| MAX (MYC associated transcriptional regulator X) | 3 | 0.581 | 7.06 | 8.27 | inactive |
| CRIP1 (cysteine rich protein 1) | 1 | 4.61 | 35.4 | 16.3 | inactive |
| CRIP1 (cysteine rich protein 1) | 2 | 0.971 | 9.8 | 8.57 | inactive |
| CRIP1 (cysteine rich protein 1) | 3 | 3.07 | 24.6 | 13.7 | inactive |

Laid out differently: entries from further up
GORASP2 (golgi reassembly stacking protein 2) #2
- G2 robust z-score: -0.0982
- G2 cells, % of GMNN control: 2.28
- raw share of cells in G2 (%): 4.93
- outcome: inactive

GORASP2 (golgi reassembly stacking protein 2) #3
- G2 robust z-score: -0.706
- G2 cells, % of GMNN control: -2
- raw share of cells in G2 (%): 2.6
- outcome: inactive

TRIM59 (tripartite motif containing 59) #1
- G2 robust z-score: 1.86
- G2 cells, % of GMNN control: 16.1
- raw share of cells in G2 (%): 12.8
- outcome: inactive

TRIM59 (tripartite motif containing 59) #2
- G2 robust z-score: 1.26
- G2 cells, % of GMNN control: 11.9
- raw share of cells in G2 (%): 9.59
- outcome: inactive

TRIM59 (tripartite motif containing 59) #3
- G2 robust z-score: -0.46
- G2 cells, % of GMNN control: -0.268
- raw share of cells in G2 (%): 4.19
- outcome: inactive

MID1IP1 (MID1 interacting protein 1) #1
- G2 robust z-score: 0.26
- G2 cells, % of GMNN control: 4.8
- raw share of cells in G2 (%): 6.24
- outcome: inactive

MID1IP1 (MID1 interacting protein 1) #2
- G2 robust z-score: 3.68
- G2 cells, % of GMNN control: 28.9
- raw share of cells in G2 (%): 18.3
- outcome: inactive

MID1IP1 (MID1 interacting protein 1) #3
- G2 robust z-score: -1.06
- G2 cells, % of GMNN control: -4.51
- raw share of cells in G2 (%): 1.6
- outcome: inactive

ACP7 (acid phosphatase 7, tartrate resistant (putative)) #1
- G2 robust z-score: 2.83
- G2 cells, % of GMNN control: 22.9
- raw share of cells in G2 (%): 12.2
- outcome: inactive

ACP7 (acid phosphatase 7, tartrate resistant (putative)) #2
- G2 robust z-score: 3.37
- G2 cells, % of GMNN control: 26.7
- raw share of cells in G2 (%): 12.3
- outcome: inactive

ACP7 (acid phosphatase 7, tartrate resistant (putative)) #3
- G2 robust z-score: 1.26
- G2 cells, % of GMNN control: 11.8
- raw share of cells in G2 (%): 7.06
- outcome: inactive

MAX (MYC associated transcriptional regulator X) #1
- G2 robust z-score: -1.5
- G2 cells, % of GMNN control: -7.57
- raw share of cells in G2 (%): 0.699
- outcome: inactive

The listing continues.
| gene | reagent no. | G2 robust z-score | G2 cells, % of GMNN control | raw share of cells in G2 (%) | outcome |
| --- | --- | --- | --- | --- | --- |
| CCDC13 (coiled-coil domain containing 13) | 1 | 0.318 | 5.21 | 5.57 | inactive |
| CCDC13 (coiled-coil domain containing 13) | 2 | -0.365 | 0.4 | 3.04 | inactive |
| CCDC13 (coiled-coil domain containing 13) | 3 | -0.873 | -3.17 | 1.96 | inactive |
| PSMB5 (proteasome 20S subunit beta 5) | 1 | 3.57 | 28.1 | 15.3 | inactive |
| PSMB5 (proteasome 20S subunit beta 5) | 2 | 8.02 | 59.4 | 25.9 | active |
| PSMB5 (proteasome 20S subunit beta 5) | 3 | 3.58 | 28.2 | 14.4 | inactive |
| TAS2R14 (taste 2 receptor member 14) | 1 | 1.32 | 12.3 | 8.54 | inactive |
| TAS2R14 (taste 2 receptor member 14) | 2 | 0.117 | 3.79 | 5.98 | inactive |
| TAS2R14 (taste 2 receptor member 14) | 3 | 1.96 | 16.8 | 8.54 | inactive |
| CADM3 (cell adhesion molecule 3) | 1 | 1.9 | 16.3 | 10.2 | inactive |
| CADM3 (cell adhesion molecule 3) | 2 | 0.242 | 4.67 | 7.58 | inactive |
| CADM3 (cell adhesion molecule 3) | 3 | 0.388 | 5.7 | 6.36 | inactive |
| LRIT2 (leucine rich repeat, Ig-like and transmembrane domains 2) | 1 | 2.19 | 18.4 | 10.3 | inactive |
| LRIT2 (leucine rich repeat, Ig-like and transmembrane domains 2) | 2 | 2.36 | 19.5 | 11.8 | inactive |
| LRIT2 (leucine rich repeat, Ig-like and transmembrane domains 2) | 3 | 0.927 | 9.49 | 8.01 | inactive |
| RMDN3 (regulator of microtubule dynamics 3) | 1 | -0.176 | 1.73 | 5.19 | inactive |
| RMDN3 (regulator of microtubule dynamics 3) | 2 | -0.681 | -1.82 | 3.38 | inactive |
| RMDN3 (regulator of microtubule dynamics 3) | 3 | 2.24 | 18.7 | 9.11 | inactive |
| GSTM2 (glutathione S-transferase mu 2) | 1 | -0.159 | 1.85 | 5.72 | inactive |
| GSTM2 (glutathione S-transferase mu 2) | 2 | -0.618 | -1.38 | 3.69 | inactive |
| GSTM2 (glutathione S-transferase mu 2) | 3 | 0.112 | 3.76 | 7.11 | inactive |
| STX3 (syntaxin 3) | 1 | 0.849 | 8.94 | 7.01 | inactive |
| STX3 (syntaxin 3) | 2 | 0.321 | 5.23 | 7.29 | inactive |
| STX3 (syntaxin 3) | 3 | 0.0656 | 3.43 | 4.35 | inactive |
| IKZF1 (IKAROS family zinc finger 1) | 1 | -0.948 | -3.7 | 2.29 | inactive |
| IKZF1 (IKAROS family zinc finger 1) | 2 | 1.38 | 12.7 | 11.6 | inactive |
| IKZF1 (IKAROS family zinc finger 1) | 3 | -0.588 | -1.17 | 2.85 | inactive |
| MEIG1 (meiosis/spermiogenesis associated 1) | 1 | 0.606 | 7.23 | 6.39 | inactive |
| MEIG1 (meiosis/spermiogenesis associated 1) | 2 | -0.118 | 2.14 | 4.04 | inactive |
| MEIG1 (meiosis/spermiogenesis associated 1) | 3 | 1.19 | 11.3 | 6.44 | inactive |
| KIF1A (kinesin family member 1A) | 1 | -0.14 | 1.98 | 5.78 | inactive |
| KIF1A (kinesin family member 1A) | 2 | 0.492 | 6.43 | 6.39 | inactive |
| KIF1A (kinesin family member 1A) | 3 | -0.464 | -0.294 | 4.62 | inactive |
| SHPK (sedoheptulokinase) | 1 | 7.44 | 55.3 | 22.8 | active |
| SHPK (sedoheptulokinase) | 2 | -0.928 | -3.56 | 3.9 | inactive |
| SHPK (sedoheptulokinase) | 3 | -0.972 | -3.87 | 2.44 | inactive |
| KCNIP1 (potassium voltage-gated channel interacting protein 1) | 1 | -0.147 | 1.93 | 6.78 | inactive |
| KCNIP1 (potassium voltage-gated channel interacting protein 1) | 2 | 0.443 | 6.09 | 4.94 | inactive |
| KCNIP1 (potassium voltage-gated channel interacting protein 1) | 3 | -0.0379 | 2.7 | 4.48 | inactive |
| NAGS (N-acetylglutamate synthase) | 1 | -1.3 | -6.18 | 3.01 | inactive |
| NAGS (N-acetylglutamate synthase) | 2 | -1.32 | -6.29 | 2.4 | inactive |
| NAGS (N-acetylglutamate synthase) | 3 | 0.473 | 6.3 | 7.35 | inactive |
| IFT56 (intraflagellar transport 56) | 1 | 0.474 | 6.3 | 7.06 | inactive |
| IFT56 (intraflagellar transport 56) | 2 | -0.236 | 1.31 | 4.88 | inactive |
| IFT56 (intraflagellar transport 56) | 3 | -0.84 | -2.94 | 1.57 | inactive |
